In patent US20080300209:
For some assays here: Results from cells or extracts need not show a direct contact. For some assays here: A negative result means that nothing was seen under these conditions. For some assays here: A weaker result is weaker than the reference pair of the same experiment. For some assays here: Protein sequences can lack the tags named with them. For some assays here: For at least one entry, the source does not settle the construct or the ends of the probe.

Legend:
CREB/ATF (Homo sapiens) [1] = experiment: competition with a labelled probe; settings: competition ELISA vs 128 nM biotinylated SEQ 4; 2 uM competitor; protein in an extract
EGR1 (Homo sapiens) [2] = target: EGR1 (Homo sapiens) (UniProt P18146); experiment: competition with a labelled probe; settings: relative affinity as high as SEQ 41; protein in an extract
NFATC1 (Homo sapiens) [3] = target: T1, NFATC1 (Homo sapiens) (UniProt O95644); experiment: competition with a labelled probe; settings: competition ELISA vs 128 nM biotinylated SEQ 15; 2 uM competitor; protein in an extract
T1 sequence (looked up, limits assumed): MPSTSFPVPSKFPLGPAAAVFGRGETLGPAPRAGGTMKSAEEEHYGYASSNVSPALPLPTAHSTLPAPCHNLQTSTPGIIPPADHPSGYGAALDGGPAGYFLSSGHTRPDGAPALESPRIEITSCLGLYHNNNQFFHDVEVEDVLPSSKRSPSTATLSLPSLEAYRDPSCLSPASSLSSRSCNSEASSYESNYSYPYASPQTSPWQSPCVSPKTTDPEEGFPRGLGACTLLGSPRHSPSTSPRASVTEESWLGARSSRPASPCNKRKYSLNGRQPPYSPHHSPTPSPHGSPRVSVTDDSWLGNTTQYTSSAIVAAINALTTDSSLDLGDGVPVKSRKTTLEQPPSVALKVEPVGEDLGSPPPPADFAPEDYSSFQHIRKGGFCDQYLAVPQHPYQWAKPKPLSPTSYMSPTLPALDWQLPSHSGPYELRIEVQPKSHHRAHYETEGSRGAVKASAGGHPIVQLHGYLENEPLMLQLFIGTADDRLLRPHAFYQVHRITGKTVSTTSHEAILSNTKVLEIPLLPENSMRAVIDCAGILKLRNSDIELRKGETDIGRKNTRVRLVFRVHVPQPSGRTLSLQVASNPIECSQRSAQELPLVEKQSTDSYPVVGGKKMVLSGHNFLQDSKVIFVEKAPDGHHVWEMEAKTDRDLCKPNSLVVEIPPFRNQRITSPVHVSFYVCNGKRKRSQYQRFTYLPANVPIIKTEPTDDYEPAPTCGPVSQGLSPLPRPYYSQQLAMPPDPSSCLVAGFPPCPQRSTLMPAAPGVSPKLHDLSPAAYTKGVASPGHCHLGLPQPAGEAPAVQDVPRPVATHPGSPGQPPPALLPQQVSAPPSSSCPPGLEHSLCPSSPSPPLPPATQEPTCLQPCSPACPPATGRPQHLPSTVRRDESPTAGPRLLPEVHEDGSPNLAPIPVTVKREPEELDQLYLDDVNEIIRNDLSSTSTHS

[4] = target: EGR1 (endogenous, HL60 cells) (Homo sapiens) (UniProt P18146); experiment: activity in cells; settings: protein in cells
CREB/ATF (Homo sapiens) [5] = experiment: binding assay; settings: transcription factor ELISA, 128 nM probe; competed by 2 uM competitor; protein in an extract; label: biotin
RUNX1 (AML1) = RUNX1 (AML1) (UniProt Q01196); experiment: binding assay; settings: transcription factor ELISA, 128 nM probe; competed by 2 uM competitor; protein in an extract; label: biotin
WT1 (Homo sapiens) [6] = target: WT1 (Homo sapiens) (UniProt P19544); experiment: competition with a labelled probe; settings: lack of affinity in competition ELISA, 512 nM competitor; protein in an extract
SP1 (Homo sapiens) [7] = target: SP1 (Homo sapiens) (UniProt P08047); experiment: competition with a labelled probe; settings: does not bind efficiently even at high excess (e.g. 512 nM competitor); protein in an extract
WT1 (Homo sapiens) [8] = target: WT1 (Homo sapiens) (UniProt P19544); experiment: binding assay; settings: transcription factor ELISA, 128 nM probe; bound poorly compared with hEGR1; protein in an extract; label: biotin (probe), unlabelled as competitor
EGR1 (Homo sapiens) [9] = target: EGR1 (Homo sapiens) (UniProt P18146); experiment: binding assay; settings: transcription factor ELISA, protein in an extract
SP1 (Homo sapiens) [10] = target: SP1 (Homo sapiens) (UniProt P08047); experiment: binding assay; settings: transcription factor ELISA, 128 nM probe; competed by 2 uM competitor; protein in an extract; label: biotin
NFATC1 (Homo sapiens) [11] = target: T1, NFATC1 (Homo sapiens); experiment: binding assay; settings: transcription factor ELISA, 128 nM probe; competed by 2 uM competitor; protein in an extract; label: biotin

Question: Does “GATGCGTGGGCGTTGACGTGGAAAATGC (double strand) [SEQ ID NO 45 composite EGR1/CREB/NFAT decoy]” bind (CREB/ATF (Homo sapiens) [1])?
Answer: binds

Question: Does “GATGCGTGGGCGTTGACGTGGAAAATGC (double strand) [SEQ ID NO 45 composite EGR1/CREB/NFAT decoy]” bind (EGR1 (Homo sapiens) [2])?
Answer: binds

Question: Does “GATGCGTGGGCGTTGACGTGGAAAATGC (double strand) [SEQ ID NO 45 composite EGR1/CREB/NFAT decoy]” bind (NFATC1 (Homo sapiens) [3])?
Answer: binds

Question: What about the “activity on this sequence” value ([4]; CDK5R1 inhibition in HL60 cells, dose-response overlapping SEQ 41) of the same sequence?
Answer: active

Question: Does “GCCTCCCTGAGCTCATTGACGTATCTCGG (double strand) [SEQ ID NO 4 CREB/ATF decoy]” bind (CREB/ATF (Homo sapiens) [5])?
Answer: binds

Question: Does “GGCAATGTGGTTTTAGTGTGGTTTTACGG (double strand) [SEQ ID NO 12 RUNX1 decoy]” bind (RUNX1 (AML1))?
Answer: binds

Question: Does “GTATGCGTGGGCGGTGGGCGTAG (double strand) [SEQ ID NO 42 fused EGR1 sites decoy]” bind (WT1 (Homo sapiens) [6])?
Answer: no binding

Question: Does “GTATGCGTGGGCGGTGGGCGTAG (double strand) [SEQ ID NO 42 fused EGR1 sites decoy]” bind (SP1 (Homo sapiens) [7])?
Answer: no binding

Question: Which results are given for “GTTATGCGTGGGCGTAGATGCGGGGGCGTTATAG (double strand) [SEQ ID NO 40 double EGR1 site decoy]”?
Answer: binding result (WT1 (Homo sapiens) [8]): binds more weakly; binding result (EGR1 (Homo sapiens) [9]; streptavidin capture, 5, 10 or 15 ug nuclear extract, label: biotin (probe), unlabelled as competitor): binds

Question: Does “GTTATGCGTTTGTAGATGCTTTCGTTATAG / CTATTTCGAAACGATCTACATTGGCATAAC [SEQ ID NO 43/46 mismatched mutated control]” bind (EGR1 (Homo sapiens) [9]; lack of EGR1 binding, label: biotin, variant of SEQ ID NO 40 double EGR1 site decoy)?
Answer: no binding

Question: What about the “activity on this sequence” value ([4]; no inhibition of CDK5R1 expression in HL60 cells, variant of SEQ ID NO 40 double EGR1 site decoy) of the same sequence?
Answer: not active

Question: Does “GTTATGGCGGGGCGGGGCGGGGCCGGGCGGTTTAC (double strand) [SEQ ID NO 11 SP1 decoy]” bind (SP1 (Homo sapiens) [10])?
Answer: binds

Question: Does “GTTCTTGGAAAATAAATGGAAAATAGTGGAAAATAAGTCG (double strand) [SEQ ID NO 15 NFAT decoy]” bind (NFATC1 (Homo sapiens) [11])?
Answer: binds
